Paper PMC6782003
Results are given in words; binding and its absence hold for the method and conditions named. In cells and extracts the contact can be indirect. Some results given as binding are weak or reduced against the parent protein; the word gives no strength. For some assays here: Tags and fused reporters may be left off the sequences shown.

The chains behind the UniProt entries cited, without tags or fusion partners.
UniProt Q91XJ1: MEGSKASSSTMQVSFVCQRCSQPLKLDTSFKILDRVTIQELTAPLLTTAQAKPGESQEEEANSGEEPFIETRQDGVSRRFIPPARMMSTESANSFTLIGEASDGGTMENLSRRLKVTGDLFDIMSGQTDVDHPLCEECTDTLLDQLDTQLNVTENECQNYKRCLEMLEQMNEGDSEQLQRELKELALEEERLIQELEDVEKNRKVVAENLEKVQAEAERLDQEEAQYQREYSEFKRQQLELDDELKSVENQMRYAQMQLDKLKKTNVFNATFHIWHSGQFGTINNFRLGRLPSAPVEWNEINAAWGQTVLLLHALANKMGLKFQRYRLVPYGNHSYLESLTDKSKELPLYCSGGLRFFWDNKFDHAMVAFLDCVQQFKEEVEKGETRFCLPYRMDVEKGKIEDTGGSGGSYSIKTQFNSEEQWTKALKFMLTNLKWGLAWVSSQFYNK

What was measured:
[1] = biological target: T1, 14-3-3t (UniProt P68255); assay: proximity ligation; indirect in situ PLA (Duolink, Detection Reagents Red) on fixed, permeabilised neurons following Glu treatment; two primary antibodies (mouse and rabbit); confocal microscopy
T1 sequence: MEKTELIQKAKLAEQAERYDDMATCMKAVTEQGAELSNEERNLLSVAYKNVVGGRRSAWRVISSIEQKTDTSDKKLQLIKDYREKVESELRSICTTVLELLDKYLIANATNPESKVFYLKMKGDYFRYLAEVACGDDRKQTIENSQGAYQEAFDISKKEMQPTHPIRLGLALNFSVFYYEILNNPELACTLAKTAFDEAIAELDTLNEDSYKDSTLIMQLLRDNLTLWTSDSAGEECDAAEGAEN

[2] = biological target: T2, Flag-14-3-3t (UniProt P68255); assay: co-IP; lysate of neuronal cells overexpressing Flag-14-3-3t (adenovirus); anti-Flag antibody, protein A/G magnetic beads, overnight 4 °C; buffer A (20 mM Tris-HCl pH 7.4, 150 mM NaCl, 1% Triton X-100, 0.5% sodium deoxycholate); immunoblot
T2 sequence: T1 sequence

binding [1]: binds | binding [2]: binds
Substance: Beclin-1 (from UniProt Q91XJ1 1-448)
